The supplement of paper PMC12889115
This is one part of the list. These are raw signals, not scaled to a control.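 First-pass screen: polymyxin B was added at a level that permeabilizes the Salmonella outer membrane while sparing the inner membrane. DMSO wells, with and without polymyxin B, defined maximum growth. Because plates differed from one another, each plate's data were ranked separately and the compounds with the lowest OD600 were carried forward as hits.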

Tested on: Salmonella enterica serovar Typhimurium SL1344
Assay: bacterial growth OD600 after 18 h with compound and polymyxin B; higher = more bacterial growth (less inhibition)
Details: 50 µM, Mueller-Hinton broth

Compound	bacterial growth OD600 (polymyxin B 0.75 µg/mL)	bacterial growth OD600 (polymyxin B 1 µg/mL)
COc1ccc(O)c(CN2CCCC(c3nc(-c4ccncc4)ncc3-c3ccccc3)C2)c1 (stereo not drawn)	0.815	
CC1(C2CCN(C(=O)Cc3ccc4c(c3)OCO4)CC2)NC(=O)N(C2Cc3ccccc3C2)C1=O (stereo not drawn)	0.98	
CC(CNC1CCN(c2ccc(C(=O)NCc3ccc4c(c3)OCO4)cc2)CC1)c1ccccc1 (stereo not drawn)	0.749	
O=C(c1ccccc1OC1CCN(Cc2ccccn2)CC1)N1CCCC1	0.82	
O=C(Nc1ccc(-c2nc3ccccc3o2)cc1)C1CCCN1C(=O)CC1CC1 (stereo not drawn)	0.87	
CCC1CN(CCNC(=O)C2CC(=O)N(C(C)C)C2)Cc2cc(OC)ccc2O1 (stereo not drawn)	0.824	
COCc1ccc(CN2CCCC(C(=O)Nc3cccc(-n4cccn4)c3)C2)o1 (stereo not drawn)		1.24
Cc1ccccc1C1(CC(=O)N2CCCC2c2nccs2)CC(=O)N(Cc2ccccc2)C1=O (stereo not drawn)	0.004	
